This is one part of the list.
Experiments:
Assay in all cases: log2 fold change, soluble protein after heating vs DMSO (PISA); higher = thermal stabilisation; K562 cells, 10 uM, 30 min; active = over 0.2 and 3.5 SD of the protein, either way, in both replicates (recomputed)
ZNF428 = ZNF428 (UniProt M0QXZ5)
Outline: (§1)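 Values are thermal stability changes relative to control samples and are taken from duplicates. They are stated as log2 fold changes. Before quantification by TMTpro 16plex LC-MS/MS with equalised channel sums, K562 cells at 2×10^6 cells/mL were treated with 10 μM compound for 30 min, heated in aliquots for 3 min across 48°C-58°C, pooled, extracted in PBS with 0.5% NP-40 at 4°C, and centrifuged at 21,000xg for 90 min to give the soluble supernatant.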

Protein sequences, listed by entry. Tags and fused reporters are not part of them. Lines headed by an entry give the natural chain unless they say otherwise; changes in a name come on top.
UniProt Q8NB15: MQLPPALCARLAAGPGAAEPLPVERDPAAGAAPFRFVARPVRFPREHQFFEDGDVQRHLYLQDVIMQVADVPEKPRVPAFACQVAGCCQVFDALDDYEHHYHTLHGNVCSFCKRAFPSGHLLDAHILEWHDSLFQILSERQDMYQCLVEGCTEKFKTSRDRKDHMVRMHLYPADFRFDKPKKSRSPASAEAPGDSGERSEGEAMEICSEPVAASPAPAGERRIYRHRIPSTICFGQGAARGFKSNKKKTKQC
UniProt Q8NAF0: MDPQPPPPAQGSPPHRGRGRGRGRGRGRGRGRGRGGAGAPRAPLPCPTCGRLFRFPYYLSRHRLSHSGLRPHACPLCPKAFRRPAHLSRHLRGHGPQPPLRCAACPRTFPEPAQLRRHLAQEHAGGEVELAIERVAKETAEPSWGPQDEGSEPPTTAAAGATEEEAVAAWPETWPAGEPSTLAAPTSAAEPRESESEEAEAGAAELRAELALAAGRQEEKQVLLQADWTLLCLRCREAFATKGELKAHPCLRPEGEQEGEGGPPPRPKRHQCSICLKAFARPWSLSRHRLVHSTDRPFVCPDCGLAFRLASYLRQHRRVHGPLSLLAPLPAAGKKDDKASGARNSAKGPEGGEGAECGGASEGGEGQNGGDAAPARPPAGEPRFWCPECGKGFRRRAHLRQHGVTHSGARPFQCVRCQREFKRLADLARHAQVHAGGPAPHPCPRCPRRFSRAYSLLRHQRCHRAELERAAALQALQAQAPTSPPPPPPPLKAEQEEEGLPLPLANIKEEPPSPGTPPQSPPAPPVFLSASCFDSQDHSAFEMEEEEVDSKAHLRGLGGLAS
UniProt O00488: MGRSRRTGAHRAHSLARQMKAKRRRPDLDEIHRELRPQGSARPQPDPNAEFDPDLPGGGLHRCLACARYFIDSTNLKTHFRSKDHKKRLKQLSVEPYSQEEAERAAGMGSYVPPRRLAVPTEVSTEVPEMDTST
UniProt Q86UK7: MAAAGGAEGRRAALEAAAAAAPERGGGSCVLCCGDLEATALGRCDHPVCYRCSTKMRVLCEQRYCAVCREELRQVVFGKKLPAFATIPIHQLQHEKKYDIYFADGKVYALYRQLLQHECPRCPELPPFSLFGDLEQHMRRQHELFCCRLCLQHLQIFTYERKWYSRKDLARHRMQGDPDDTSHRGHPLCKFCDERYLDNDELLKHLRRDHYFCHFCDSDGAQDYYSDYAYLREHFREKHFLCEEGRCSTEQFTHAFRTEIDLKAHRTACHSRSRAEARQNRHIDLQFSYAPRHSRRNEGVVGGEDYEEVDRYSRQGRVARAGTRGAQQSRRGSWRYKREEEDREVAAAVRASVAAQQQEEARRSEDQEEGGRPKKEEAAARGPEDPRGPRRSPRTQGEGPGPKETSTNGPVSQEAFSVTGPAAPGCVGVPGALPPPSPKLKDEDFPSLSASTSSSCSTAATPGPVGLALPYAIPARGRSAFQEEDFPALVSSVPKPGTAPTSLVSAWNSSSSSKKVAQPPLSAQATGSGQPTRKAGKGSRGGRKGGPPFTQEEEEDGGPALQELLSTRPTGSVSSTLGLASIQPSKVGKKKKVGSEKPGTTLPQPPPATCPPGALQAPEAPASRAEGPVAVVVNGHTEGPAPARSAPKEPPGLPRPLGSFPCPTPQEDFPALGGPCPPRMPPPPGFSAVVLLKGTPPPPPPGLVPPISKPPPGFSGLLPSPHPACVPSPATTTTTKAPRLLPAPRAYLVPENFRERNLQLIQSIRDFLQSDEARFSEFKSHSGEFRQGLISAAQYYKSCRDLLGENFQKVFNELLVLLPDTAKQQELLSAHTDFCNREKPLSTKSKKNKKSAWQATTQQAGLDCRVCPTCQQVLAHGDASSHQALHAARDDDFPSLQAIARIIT
UniProt Q5T7W0: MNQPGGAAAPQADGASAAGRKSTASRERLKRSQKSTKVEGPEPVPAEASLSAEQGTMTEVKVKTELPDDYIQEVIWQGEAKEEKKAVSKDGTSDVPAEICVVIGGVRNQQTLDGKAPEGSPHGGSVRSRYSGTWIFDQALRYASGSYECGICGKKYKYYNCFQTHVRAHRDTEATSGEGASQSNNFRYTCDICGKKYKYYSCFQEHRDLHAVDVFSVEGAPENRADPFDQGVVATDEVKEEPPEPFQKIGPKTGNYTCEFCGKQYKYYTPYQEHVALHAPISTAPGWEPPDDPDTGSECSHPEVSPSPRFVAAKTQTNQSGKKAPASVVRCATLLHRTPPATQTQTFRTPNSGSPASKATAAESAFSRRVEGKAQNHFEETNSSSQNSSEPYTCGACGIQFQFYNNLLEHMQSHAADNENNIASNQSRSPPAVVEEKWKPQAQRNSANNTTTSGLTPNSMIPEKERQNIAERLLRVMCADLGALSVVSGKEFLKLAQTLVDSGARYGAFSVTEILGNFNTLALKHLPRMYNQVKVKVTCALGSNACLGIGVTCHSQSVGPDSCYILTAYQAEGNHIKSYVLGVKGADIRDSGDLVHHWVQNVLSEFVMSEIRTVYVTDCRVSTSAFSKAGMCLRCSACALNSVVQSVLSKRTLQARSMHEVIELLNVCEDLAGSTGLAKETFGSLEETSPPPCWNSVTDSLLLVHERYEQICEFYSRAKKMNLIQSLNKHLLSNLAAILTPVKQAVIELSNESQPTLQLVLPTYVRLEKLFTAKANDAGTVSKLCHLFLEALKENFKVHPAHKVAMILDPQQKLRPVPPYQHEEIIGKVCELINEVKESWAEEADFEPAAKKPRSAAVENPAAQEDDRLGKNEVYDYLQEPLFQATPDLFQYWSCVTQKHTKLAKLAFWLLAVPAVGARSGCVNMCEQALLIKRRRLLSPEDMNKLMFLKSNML
UniProt Q969S3: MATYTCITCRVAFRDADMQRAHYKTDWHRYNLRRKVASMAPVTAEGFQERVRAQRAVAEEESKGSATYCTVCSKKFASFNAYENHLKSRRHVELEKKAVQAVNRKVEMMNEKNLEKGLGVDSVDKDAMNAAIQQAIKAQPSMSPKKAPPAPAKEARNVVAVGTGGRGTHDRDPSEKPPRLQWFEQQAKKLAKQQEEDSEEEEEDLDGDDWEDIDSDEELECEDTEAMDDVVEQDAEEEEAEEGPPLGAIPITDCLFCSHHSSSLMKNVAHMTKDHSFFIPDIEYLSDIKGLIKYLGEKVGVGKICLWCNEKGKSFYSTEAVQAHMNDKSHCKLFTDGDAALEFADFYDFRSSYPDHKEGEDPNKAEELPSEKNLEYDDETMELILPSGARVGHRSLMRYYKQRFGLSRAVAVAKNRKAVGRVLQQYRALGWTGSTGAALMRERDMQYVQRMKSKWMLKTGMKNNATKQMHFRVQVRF
UniProt Q9UEG4: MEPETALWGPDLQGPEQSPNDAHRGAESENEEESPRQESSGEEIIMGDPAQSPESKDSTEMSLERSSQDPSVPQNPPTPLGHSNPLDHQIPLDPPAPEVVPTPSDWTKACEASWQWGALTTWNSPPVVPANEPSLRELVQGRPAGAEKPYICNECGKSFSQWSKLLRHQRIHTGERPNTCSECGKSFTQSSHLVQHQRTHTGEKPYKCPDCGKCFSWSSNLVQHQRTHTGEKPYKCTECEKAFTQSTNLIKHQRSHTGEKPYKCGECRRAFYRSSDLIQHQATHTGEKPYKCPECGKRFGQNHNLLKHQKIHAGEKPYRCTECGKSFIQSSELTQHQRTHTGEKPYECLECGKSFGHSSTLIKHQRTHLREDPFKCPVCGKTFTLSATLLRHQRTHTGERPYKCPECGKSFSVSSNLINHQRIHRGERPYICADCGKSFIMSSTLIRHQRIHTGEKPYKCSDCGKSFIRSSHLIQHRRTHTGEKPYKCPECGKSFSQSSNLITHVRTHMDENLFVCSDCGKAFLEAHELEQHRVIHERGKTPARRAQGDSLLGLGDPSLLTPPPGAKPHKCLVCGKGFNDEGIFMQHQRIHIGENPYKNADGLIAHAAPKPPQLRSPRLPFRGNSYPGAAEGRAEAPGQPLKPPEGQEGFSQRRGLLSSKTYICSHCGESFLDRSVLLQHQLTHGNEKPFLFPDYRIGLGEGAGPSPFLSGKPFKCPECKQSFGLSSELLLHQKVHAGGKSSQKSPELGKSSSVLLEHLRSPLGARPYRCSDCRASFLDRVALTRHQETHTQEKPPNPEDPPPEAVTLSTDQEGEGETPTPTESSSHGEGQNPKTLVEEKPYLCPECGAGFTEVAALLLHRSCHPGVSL
UniProt Q9UK33: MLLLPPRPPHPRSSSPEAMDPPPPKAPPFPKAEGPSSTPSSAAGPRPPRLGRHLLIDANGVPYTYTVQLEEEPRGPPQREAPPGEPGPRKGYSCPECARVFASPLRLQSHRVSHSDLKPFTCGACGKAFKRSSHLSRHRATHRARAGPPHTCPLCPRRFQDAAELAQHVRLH
UniProt Q9UID6: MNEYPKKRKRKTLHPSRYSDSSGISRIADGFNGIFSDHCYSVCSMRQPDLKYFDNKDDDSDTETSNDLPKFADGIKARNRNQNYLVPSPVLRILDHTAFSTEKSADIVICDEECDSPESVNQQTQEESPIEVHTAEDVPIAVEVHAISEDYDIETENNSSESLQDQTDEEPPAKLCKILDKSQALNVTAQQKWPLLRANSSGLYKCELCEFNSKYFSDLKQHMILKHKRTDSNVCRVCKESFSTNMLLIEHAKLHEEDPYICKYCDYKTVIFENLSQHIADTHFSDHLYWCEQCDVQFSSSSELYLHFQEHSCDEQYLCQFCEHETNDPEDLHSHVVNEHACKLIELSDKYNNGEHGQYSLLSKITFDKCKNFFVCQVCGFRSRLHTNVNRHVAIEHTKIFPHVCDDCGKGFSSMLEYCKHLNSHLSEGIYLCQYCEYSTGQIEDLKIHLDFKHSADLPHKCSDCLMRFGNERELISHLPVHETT
UniProt Q9Y4E5: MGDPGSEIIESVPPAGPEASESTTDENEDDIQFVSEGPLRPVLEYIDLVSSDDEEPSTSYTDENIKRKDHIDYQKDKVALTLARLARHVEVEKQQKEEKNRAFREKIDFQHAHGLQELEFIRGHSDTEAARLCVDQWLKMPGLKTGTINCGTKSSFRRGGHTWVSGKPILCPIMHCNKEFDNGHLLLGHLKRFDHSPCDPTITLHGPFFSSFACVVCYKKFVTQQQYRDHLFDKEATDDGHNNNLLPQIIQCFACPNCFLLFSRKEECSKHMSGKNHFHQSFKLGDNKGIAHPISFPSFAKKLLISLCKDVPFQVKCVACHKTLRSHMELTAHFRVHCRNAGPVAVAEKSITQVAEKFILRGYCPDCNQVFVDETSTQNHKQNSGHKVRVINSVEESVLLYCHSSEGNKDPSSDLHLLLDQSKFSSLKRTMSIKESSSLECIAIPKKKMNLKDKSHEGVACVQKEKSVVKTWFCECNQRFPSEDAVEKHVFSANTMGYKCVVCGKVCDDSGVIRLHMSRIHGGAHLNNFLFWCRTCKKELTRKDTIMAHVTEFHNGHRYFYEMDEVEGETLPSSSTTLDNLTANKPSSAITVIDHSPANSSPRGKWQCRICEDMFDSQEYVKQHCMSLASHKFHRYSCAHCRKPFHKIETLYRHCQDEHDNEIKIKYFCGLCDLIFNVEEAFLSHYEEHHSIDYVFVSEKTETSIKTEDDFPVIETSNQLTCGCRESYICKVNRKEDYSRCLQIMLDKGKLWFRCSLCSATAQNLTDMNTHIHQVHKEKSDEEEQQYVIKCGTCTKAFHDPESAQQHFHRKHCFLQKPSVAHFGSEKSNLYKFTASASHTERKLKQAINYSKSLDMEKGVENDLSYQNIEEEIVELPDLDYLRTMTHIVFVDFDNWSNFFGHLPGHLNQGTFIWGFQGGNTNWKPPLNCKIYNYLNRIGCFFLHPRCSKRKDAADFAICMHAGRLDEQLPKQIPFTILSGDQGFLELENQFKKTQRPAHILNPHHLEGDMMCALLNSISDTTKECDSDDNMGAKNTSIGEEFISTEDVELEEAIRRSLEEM
UniProt Q96ME7: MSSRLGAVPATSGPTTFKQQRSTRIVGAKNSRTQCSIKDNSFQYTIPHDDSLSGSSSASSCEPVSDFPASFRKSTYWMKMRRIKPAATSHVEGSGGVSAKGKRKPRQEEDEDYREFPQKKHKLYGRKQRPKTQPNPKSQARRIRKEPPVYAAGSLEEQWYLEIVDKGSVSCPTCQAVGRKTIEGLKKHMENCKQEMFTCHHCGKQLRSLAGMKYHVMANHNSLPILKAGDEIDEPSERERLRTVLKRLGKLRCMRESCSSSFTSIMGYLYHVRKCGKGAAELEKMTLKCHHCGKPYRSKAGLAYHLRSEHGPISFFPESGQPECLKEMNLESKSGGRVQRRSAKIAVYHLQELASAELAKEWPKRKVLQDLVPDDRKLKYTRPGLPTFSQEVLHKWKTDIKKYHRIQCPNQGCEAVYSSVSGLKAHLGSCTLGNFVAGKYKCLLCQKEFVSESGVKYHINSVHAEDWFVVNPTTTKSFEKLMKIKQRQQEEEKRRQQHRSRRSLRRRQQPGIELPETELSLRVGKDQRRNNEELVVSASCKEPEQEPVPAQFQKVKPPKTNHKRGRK

ZNF511 isoform 1 = ZNF511 isoform 1 (UniProt Q8NB15)
Outline: as §1

ZNF512B = ZNF512B (UniProt Q96KM6)
Outline: as §1

ZNF579 = ZNF579 (UniProt Q8NAF0)
Outline: as §1

ZNF593 = ZNF593 (UniProt O00488)
Outline: as §1

ZNF598 = ZNF598 (UniProt Q86UK7)
Outline: as §1

ZNF609 = ZNF609 (UniProt O15014)
Outline: as §1

ZNF618 [1] = molecular target: ZNF618 (UniProt Q5T7W0)
Outline: as §1

ZNF618 isoform 2 = ZNF618 isoform 2 (UniProt Q5T7W0)
Outline: as §1

ZNF622 = ZNF622 (UniProt Q969S3)
Outline: as §1

ZNF629 = ZNF629 (UniProt Q9UEG4)
Outline: as §1

ZNF638 = ZNF638 (UniProt Q14966)
Outline: as §1

ZNF580 = ZNF580 (UniProt Q9UK33)
Outline: as §1

ZNF639 = ZNF639 (UniProt Q9UID6)
Outline: as §1

ZNF451 = ZNF451 (UniProt Q9Y4E5)
Outline: as §1

ZNF512 = ZNF512 (UniProt Q96ME7)
Outline: as §1

ZNF618 [2] = molecular target: ZNF618 (UniProt B1ALC2)
Outline: as §1

Measured: log2 fold change

Cn1cc(-c2ccc3nnc(C(F)(F)c4ccc5ncccc5c4)n3n2)cn1
inactive: ZNF428 = -0.044 | ZNF511 isoform 1 = -0.132 | ZNF512B -0.202 | ZNF579 = 0.002 | ZNF593 = -0.118 | ZNF598 = 0.021 | ZNF609 = -0.286 | ZNF618 [1] -0.039 | ZNF618 isoform 2 = 0.143 | ZNF622 = 0.024 | ZNF629 = -0.293 | ZNF638 = 0.007

CNCc1ccc(-c2[nH]c3cc(F)cc4c3c2CCNC4=O)cc1 [rucaparib]
inactive: ZNF428 = -0.032 | ZNF511 isoform 1 = -0.006 | ZNF579 = 0.01 | ZNF580 = 0.136 | ZNF593 = 0.106 | ZNF598 = 0.135 | ZNF609 = -0.034 | ZNF618 [1] 0.012 | ZNF618 isoform 2 = 0.466 | ZNF622 = -0.194 | ZNF629 = 0.213 | ZNF638 = -0.012 | ZNF639 = 0.014

Fc1ccc(Cl)cc1-c1nc(Nc2ccncc2)c2nccnc2n1
inactive: ZNF428 = 0.09 | ZNF451 = 0.136 | ZNF511 isoform 1 = -0.03 | ZNF512 = 0.086 | ZNF512B -0.162 | ZNF579 = -0.002 | ZNF593 = -0.287 | ZNF598 = -0.029 | ZNF609 = -0.302 | ZNF618 [1] 0.128 | ZNF618 isoform 2 = 0.017 | ZNF622 = 0.038 | ZNF629 = -0.364 | ZNF638 = -0.029

CC[C@H](C)[C@H](NC(=O)[C@H]([C@@H](C)CC)N(C)C(C)=O)C(=O)N[C@H](C(=O)N[C@@H](CC(C)C)C(=O)[C@@]1(C)CO1)[C@@H](C)O [epoxomicin]
inactive: ZNF428 = 0.064 | ZNF451 = 0.079 | ZNF511 isoform 1 = -0.045 | ZNF512 = 0.085 | ZNF512B 0.051 | ZNF579 = -0.024 | ZNF593 = -0.15 | ZNF598 = -0.005 | ZNF609 = -0.271 | ZNF618 [1] 0.098 | ZNF618 isoform 2 = -0.047 | ZNF622 = 0.056 | ZNF629 = -0.162 | ZNF638 = 0.084

Cc1ncc(-c2ccnc(Nc3ccc(S(C)(=O)=O)cc3)n2)n1C(C)C
inactive: ZNF428 = 0.01 | ZNF511 isoform 1 = 0.015 | ZNF512 = -0.072 | ZNF579 = -0.054 | ZNF593 = -0.115 | ZNF598 = -0.03 | ZNF609 = -0.102 | ZNF618 [2] -0.047 | ZNF618 [1] -0.035 | ZNF622 = 0.013 | ZNF629 = -0.125

CC[C@@H]1C(=O)N(C)c2cnc(Nc3ccc(C(=O)NC4CCN(C)CC4)cc3OC)nc2N1C1CCCC1
inactive: ZNF428 = -0.039 | ZNF511 isoform 1 = -0.041 | ZNF579 = -0.017 | ZNF580 = 0.037 | ZNF593 = 0.152 | ZNF598 = -0.037 | ZNF609 = 0.047 | ZNF618 [1] -0.019 | ZNF618 isoform 2 = -0.119 | ZNF622 = 0.069 | ZNF629 = 0.134 | ZNF638 = -0.02 | ZNF639 = -0.382

A draw from above in order of molecular weight, descending.
CC[C@H](C)[C@H](NC(=O)[C@H]([C@@H](C)CC)N(C)C(C)=O)C(=O)N[C@H](C(=O)N[C@@H](CC(C)C)C(=O)[C@@]1(C)CO1)[C@@H](C)O [epoxomicin]
inactive: ZNF428 = 0.064 | ZNF451 = 0.079 | ZNF511 isoform 1 = -0.045 | ZNF512 = 0.085 | ZNF512B 0.051 | ZNF579 = -0.024 | ZNF593 = -0.15 | ZNF598 = -0.005 | ZNF609 = -0.271 | ZNF618 [1] 0.098 | ZNF618 isoform 2 = -0.047 | ZNF622 = 0.056 | ZNF629 = -0.162 | ZNF638 = 0.084

CC[C@@H]1C(=O)N(C)c2cnc(Nc3ccc(C(=O)NC4CCN(C)CC4)cc3OC)nc2N1C1CCCC1
inactive: ZNF428 = -0.039 | ZNF511 isoform 1 = -0.041 | ZNF579 = -0.017 | ZNF580 = 0.037 | ZNF593 = 0.152 | ZNF598 = -0.037 | ZNF609 = 0.047 | ZNF618 [1] -0.019 | ZNF618 isoform 2 = -0.119 | ZNF622 = 0.069 | ZNF629 = 0.134 | ZNF638 = -0.02 | ZNF639 = -0.382

Fc1ccc(Cl)cc1-c1nc(Nc2ccncc2)c2nccnc2n1
inactive: ZNF428 = 0.09 | ZNF451 = 0.136 | ZNF511 isoform 1 = -0.03 | ZNF512 = 0.086 | ZNF512B -0.162 | ZNF579 = -0.002 | ZNF593 = -0.287 | ZNF598 = -0.029 | ZNF609 = -0.302 | ZNF618 [1] 0.128 | ZNF618 isoform 2 = 0.017 | ZNF622 = 0.038 | ZNF629 = -0.364 | ZNF638 = -0.029

Additional records

Cc1cn(-c2cc(NC(=O)c3ccc(C)c(Nc4nccc(-c5cccnc5)n4)c3)cc(C(F)(F)F)c2)cn1 [nilotinib]
inactive: ZNF428 = 0.016 | ZNF511 isoform 1 = -0.17 | ZNF512 = -0.031 | ZNF579 = 0.105 | ZNF593 = -0.073 | ZNF598 = -0.073 | ZNF609 = 0.03 | ZNF618 [2] -0.004 | ZNF618 [1] 0.007 | ZNF622 = 0.046 | ZNF629 = 0.151

Oc1cc(-c2nc(-c3ccccc3)[nH]c2-c2ccncc2)ccc1Cl
inactive: ZNF428 = 0.075 | ZNF511 isoform 1 = 0.018 | ZNF512B -0.016 | ZNF579 = -0.025 | ZNF593 = -0.138 | ZNF598 = 0.087 | ZNF609 = 0.01 | ZNF618 [1] 0.011 | ZNF618 isoform 2 = -0.181 | ZNF622 = 0.016 | ZNF629 = -0.179 | ZNF638 = -0.025

C[C@@H]1COCCN1c1cc(C2(S(C)(=O)=O)CC2)nc(-c2cccc3[nH]ccc23)n1
inactive: ZNF428 = -0.005 | ZNF451 = -0.162 | ZNF511 isoform 1 = 0.105 | ZNF512 = 0.007 | ZNF512B -0.346 | ZNF579 = -0.114 | ZNF593 = -0.307 | ZNF598 = 0.028 | ZNF609 = -0.064 | ZNF618 [1] 0.018 | ZNF618 isoform 2 = -0.131 | ZNF622 = 0.067 | ZNF629 = -0.281 | ZNF638 = -0.001

Cc1nc(Nc2n[nH]c3c2CN(C(=O)N[C@H](CN(C)C)c2ccccc2)C3(C)C)c2sccc2n1
inactive: ZNF428 = -0.006 | ZNF511 isoform 1 = 0.005 | ZNF512 = 0.187 | ZNF579 = -0.115 | ZNF593 = 0.082 | ZNF598 = -0.1 | ZNF609 = -0.018 | ZNF618 [2] 0.059 | ZNF618 [1] -0.041 | ZNF622 = 0.091 | ZNF629 = -0.166

From the supplement of paper PMC10849652
